Data reported in PMC5762779, “The peroxisomal AAA-ATPase Pex1/Pex6 unfolds substrates by processive threading” (Nature Communications, 2018).
These are yes or no findings as the source states them, for the method shown. Some results given as binding are weak or reduced against the parent protein; the word gives no strength. Sequences can lack the tags named with a protein.

Chains of the proteins cited; added tags and fusions are not shown. Lines headed by an entry give the natural chain unless they say otherwise; changes in a name come on top.
UniProt P24004: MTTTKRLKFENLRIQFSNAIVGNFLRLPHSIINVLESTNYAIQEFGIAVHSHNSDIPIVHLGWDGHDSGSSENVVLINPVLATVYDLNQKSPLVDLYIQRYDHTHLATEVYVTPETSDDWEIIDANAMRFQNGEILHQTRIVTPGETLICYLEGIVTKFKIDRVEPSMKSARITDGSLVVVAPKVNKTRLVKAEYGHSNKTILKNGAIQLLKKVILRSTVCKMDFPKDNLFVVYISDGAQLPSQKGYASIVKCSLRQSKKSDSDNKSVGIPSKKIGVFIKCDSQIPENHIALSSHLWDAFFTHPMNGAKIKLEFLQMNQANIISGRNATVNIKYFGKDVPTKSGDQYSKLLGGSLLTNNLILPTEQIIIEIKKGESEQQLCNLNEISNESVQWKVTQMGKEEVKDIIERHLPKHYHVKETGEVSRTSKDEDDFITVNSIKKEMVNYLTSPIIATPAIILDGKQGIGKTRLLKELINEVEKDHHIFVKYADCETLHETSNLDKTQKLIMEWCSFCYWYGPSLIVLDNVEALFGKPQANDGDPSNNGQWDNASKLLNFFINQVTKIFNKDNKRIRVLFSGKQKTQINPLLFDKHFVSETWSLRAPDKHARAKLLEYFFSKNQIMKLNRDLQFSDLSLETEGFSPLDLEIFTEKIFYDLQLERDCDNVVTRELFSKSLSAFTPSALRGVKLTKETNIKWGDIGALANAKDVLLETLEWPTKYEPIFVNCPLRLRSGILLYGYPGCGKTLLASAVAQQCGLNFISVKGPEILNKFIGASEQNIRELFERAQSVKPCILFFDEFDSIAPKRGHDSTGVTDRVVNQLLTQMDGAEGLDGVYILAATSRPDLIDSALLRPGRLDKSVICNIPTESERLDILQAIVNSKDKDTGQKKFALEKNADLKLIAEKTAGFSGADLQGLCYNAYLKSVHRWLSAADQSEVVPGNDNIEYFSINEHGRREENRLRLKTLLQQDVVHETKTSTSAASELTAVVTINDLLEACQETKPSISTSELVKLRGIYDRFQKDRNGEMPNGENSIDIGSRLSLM

T1: MBP-Pex15 1-253 (S. cerevisiae) (UniProt Q08215)
T1 sequence: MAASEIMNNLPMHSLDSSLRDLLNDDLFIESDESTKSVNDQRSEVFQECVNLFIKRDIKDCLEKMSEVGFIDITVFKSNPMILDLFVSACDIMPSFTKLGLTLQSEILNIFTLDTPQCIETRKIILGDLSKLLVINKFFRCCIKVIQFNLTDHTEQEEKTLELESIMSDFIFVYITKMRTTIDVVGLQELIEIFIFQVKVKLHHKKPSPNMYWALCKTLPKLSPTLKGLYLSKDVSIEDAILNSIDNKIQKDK

T2: MBP-Pex15 1-309 (S. cerevisiae) (UniProt Q08215)
T2 sequence: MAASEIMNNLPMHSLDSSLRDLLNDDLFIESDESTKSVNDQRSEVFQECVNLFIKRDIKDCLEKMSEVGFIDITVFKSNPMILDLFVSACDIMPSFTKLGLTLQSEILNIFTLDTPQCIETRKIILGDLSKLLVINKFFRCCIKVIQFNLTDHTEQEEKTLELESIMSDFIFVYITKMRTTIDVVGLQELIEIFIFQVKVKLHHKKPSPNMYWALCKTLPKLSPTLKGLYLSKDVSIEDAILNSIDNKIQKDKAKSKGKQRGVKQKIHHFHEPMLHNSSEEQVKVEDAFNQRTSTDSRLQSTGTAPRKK

T3: MBP-Pex15 1-327-FLAG-His (S. cerevisiae) (UniProt Q08215)
T3 sequence: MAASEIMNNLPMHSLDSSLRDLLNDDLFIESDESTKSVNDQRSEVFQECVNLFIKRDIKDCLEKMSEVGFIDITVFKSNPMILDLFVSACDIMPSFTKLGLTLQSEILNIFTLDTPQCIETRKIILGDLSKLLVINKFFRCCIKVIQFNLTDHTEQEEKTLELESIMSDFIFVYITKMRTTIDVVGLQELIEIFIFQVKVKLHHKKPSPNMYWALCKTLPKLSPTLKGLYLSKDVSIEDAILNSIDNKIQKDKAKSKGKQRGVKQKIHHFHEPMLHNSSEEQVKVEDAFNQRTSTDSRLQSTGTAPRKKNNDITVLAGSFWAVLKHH

B1: His-Pex6 1-215 (domain or fragment, UniProt P33760 1-215)
chain: MKASLTFSLSGIYAPCSISRDIYLEYGDKKAECLYGTIRLPQYGPGCTPGKIVHCVLDDSLPFCSIVVPSKLFGFMPTQPTMDFCYFEPILDNVVPVLDSVTFLINEQLYSKLMDLPQEMQQIQFLHYKYNINSMETVVHSRDILTSGLCQILNCSPFPQGLVDFTETQLILVNDTEQKLSALKYANEDEEYALPKIGTNSALSIDLESLPCTIS

Legend:
[1] = target: T1, MBP-Pex15 1-253 (S. cerevisiae); test: pull-down; MBP-Pex15 C-terminal truncations with Pex1/Pex6 (Supplementary Figure 8A); conditions not told in the text shown; both purified
[2] = target: T2, MBP-Pex15 1-309 (S. cerevisiae); test: as above
[3] = target: T3, MBP-Pex15 1-327-FLAG-His (S. cerevisiae); test: pull-down; 1 μM MBP-Pex15 1-327-FLAG-His on magnetic amylose resin with 5 μM His-Pex6 1-215, 1 h, 4 °C, 60 mM HEPES pH 7.6, 150 mM NaCl, 150 mM KCl, 10% glycerol, 0.05% Tween-20, 10 mM MgCl2, 0.5 mM EDTA, 5 mM ATP; eluted with 20 mM maltose; SYPRO-Ruby or anti-His blot; both purified
[4] = target: T3, MBP-Pex15 1-327-FLAG-His (S. cerevisiae); test: pull-down; 1 uM MBP-Pex15 1-327-FLAG-His on magnetic amylose resin with 0.5 uM Pex1-Strep/His-Pex6 hexamer, His-Pex1-FLAG, His-Pex6-FLAG or 5 uM His-Pex6 1-215; 1 h, 4 °C, 60 mM HEPES pH 7.6, 150 mM NaCl, 150 mM KCl, 10% glycerol, 0.05% Tween-20, 10 mM MgCl2, 0.5 mM EDTA, 5 mM ATP; maltose elution; SYPRO-Ruby or anti-His blot; both purified

Molecule | binding [1] | binding [2] | binding [3] | binding [4]
Pex1-Strep/His-Pex6 hexamer, wild type (from UniProt P24004 1-1043; P33760 1-1030) (complex) | binds | binds | – | –
B1 | – | – | binds | binds
